Experimental data published in article PMC3880038.
Results are given in words; binding and its absence hold for the method and conditions named. In cells and extracts the contact can be indirect.

Amino acid sequences for entries named in this document (tags omitted).
UniProt P15311: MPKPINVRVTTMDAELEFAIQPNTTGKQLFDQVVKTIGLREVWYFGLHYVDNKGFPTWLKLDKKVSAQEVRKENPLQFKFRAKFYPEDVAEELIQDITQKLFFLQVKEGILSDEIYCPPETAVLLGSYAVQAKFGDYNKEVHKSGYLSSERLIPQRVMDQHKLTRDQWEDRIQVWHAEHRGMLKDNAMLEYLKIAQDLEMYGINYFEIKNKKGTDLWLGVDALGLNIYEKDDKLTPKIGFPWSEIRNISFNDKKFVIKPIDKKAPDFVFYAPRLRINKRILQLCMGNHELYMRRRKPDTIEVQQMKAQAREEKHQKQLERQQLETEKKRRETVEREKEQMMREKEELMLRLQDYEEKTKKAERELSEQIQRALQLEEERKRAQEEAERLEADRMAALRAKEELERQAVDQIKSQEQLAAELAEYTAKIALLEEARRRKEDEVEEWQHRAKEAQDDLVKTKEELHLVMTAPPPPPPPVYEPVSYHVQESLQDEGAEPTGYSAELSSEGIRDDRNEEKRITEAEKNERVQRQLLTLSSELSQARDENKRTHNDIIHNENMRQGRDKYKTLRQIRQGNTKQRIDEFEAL
UniProt P26038: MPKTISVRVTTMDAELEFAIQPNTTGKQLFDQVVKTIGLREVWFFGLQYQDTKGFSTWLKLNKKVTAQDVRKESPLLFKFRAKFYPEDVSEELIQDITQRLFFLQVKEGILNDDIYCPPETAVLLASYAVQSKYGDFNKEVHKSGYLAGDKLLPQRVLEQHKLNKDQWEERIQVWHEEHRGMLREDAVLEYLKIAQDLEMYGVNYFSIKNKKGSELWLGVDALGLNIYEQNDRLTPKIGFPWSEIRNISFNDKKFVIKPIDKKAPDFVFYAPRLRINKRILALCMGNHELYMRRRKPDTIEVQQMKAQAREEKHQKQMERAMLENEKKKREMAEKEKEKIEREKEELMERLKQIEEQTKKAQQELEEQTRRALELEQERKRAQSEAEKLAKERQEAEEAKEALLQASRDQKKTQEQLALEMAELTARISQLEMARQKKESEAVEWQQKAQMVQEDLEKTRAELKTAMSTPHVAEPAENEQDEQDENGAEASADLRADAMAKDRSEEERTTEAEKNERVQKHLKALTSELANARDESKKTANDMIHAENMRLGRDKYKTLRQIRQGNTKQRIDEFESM
UniProt P35241: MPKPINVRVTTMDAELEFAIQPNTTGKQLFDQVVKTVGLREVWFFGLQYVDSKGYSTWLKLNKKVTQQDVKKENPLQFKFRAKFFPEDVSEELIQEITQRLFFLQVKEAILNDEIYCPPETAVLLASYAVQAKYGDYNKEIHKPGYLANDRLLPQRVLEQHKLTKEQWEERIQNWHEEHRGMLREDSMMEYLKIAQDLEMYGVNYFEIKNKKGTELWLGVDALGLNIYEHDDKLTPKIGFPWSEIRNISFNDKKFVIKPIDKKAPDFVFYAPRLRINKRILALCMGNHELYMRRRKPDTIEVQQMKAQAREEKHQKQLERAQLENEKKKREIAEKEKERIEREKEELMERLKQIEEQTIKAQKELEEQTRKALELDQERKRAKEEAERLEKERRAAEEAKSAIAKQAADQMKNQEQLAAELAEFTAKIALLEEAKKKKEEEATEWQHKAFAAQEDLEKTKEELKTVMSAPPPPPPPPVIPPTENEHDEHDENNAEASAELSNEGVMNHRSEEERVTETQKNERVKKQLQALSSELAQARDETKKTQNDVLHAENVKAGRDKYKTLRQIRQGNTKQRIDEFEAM

Assays:
Test in all cases: co-IP; anti-c-myc immunoprecipitation from lysates of BPAEC transfected with pCMV-myc ezrin, radixin or moesin (IP buffer with 150 mM NaCl, 1% Nonidet P-40; protein G Sepharose, 4°C), Western blot for c-myc, EBP50 and NHERF2
[1] = target: c-myc-tagged ezrin (pCMV-myc ezrin) (UniProt P15311)
[2] = target: c-myc-tagged moesin (pCMV-myc moesin) (UniProt P26038)
[3] = target: c-myc-tagged radixin (pCMV-myc radixin) (UniProt P35241)

Measured: binding

B1: EBP50 (NHERF1), endogenous in BPAEC (protein, UniProt Q3SZK8 1-368)
chain: MSADAGAGAPLPRLCCLEKGPNGYGFHLHGEKGKVGQYIRLVEPGSPAEKSGLLAGDRLVEVNGENVEKETHQQVVNRIRAALNSVRLLVVDPETDERLQKLGVQVREEMLRAQEGPGQAEPPAAAAEERGAGGENEPPAAAPEPREAEQSPQERRELRPRLCAMKKGPNGYGFNLHSDKSKPGQFIRAVDPDSPAEASGLRAQDRIVEVNGVCVEGKPHGEVVSAIKAGGDEAKLLVVDRETDEFFKKCKVIPSQEHLQGPLPEPITNGEIEKENSPEALAETASESPMPPLARTASSDTSEELNSQDSPKKQDSTAPSSTSSSSSDPVLDFSISLAVAKERAHQKRVSKRAPQMDWSKKNELFSNL
no binding: all assays above
